{"source": "the supplement of paper PMC6289059", "note": "This is one part of the list. Repeats are few or missing, and single values can be far off.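 The cells are hepatocyte-like cells grown from human stem cells in which the DGUOK gene was disrupted by CRISPR, a model of liver mtDNA depletion syndrome. Each well's ATP signal was scored against the other wells on its plate, and a drug counted as a primary hit when its score was 3 or higher.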", "data": [{"tested_on": "DGUOK Δ14/Δ5 iPSC-derived hepatocyte-like cells (SV20)", "experiment": "ATP level (CellTiter-Glo luminescence) Z score relative to plate distribution, under 2-DG glycolysis block; higher = more cellular ATP (rescue of mitochondrial ATP production)", "settings": "5 µM; treatment time: day 15 to day 20 of differentiation (5 days); 2-deoxy-D-glucose: 20 mM for 24 h before assay", "values": [{"smiles": "C=C1C[C@H]2[C@@H]3C=C(C)C4=CC(=O)CC[C@]4(C)[C@H]3CC[C@]2(C)[C@@]1(OC(C)=O)C(C)=O", "ATP level": "inactive: 0.919"}, {"smiles": "NC(C(=O)O)C(O)C(=O)O", "note": "(stereo not drawn) [d,l-threo-3-HYDROXYASPARTIC ACID]", "ATP level": "inactive: -0.196"}, {"smiles": "N=C(N)NC(=N)N1CCOCC1", "ATP level": "inactive: 2.29"}, {"smiles": "CC(=O)Oc1cccc2c1C(=O)c1c(OC(C)=O)cc(C(=O)O)cc1C2=O", "ATP level": "inactive: -5.46"}, {"smiles": "CC1NC(=O)NC1=O", "note": "(centres undefined)", "ATP level": "inactive: -0.688"}, {"smiles": "Cc1ncc(CSSCc2cnc(C)c(O)c2CO)c(CO)c1O", "ATP level": "inactive: -0.792"}, {"smiles": "CCn1cc(C(=O)O)c(=O)c2cnc(N3CCNCC3)nc21", "ATP level": "inactive: -0.533"}, {"smiles": "NCCS(=O)(=O)O", "ATP level": "inactive: 1.88"}, {"smiles": "COc1cc2nc(N3CCN(C(=O)c4ccco4)CC3)nc(N)c2cc1OC", "ATP level": "inactive: -2.24"}, {"smiles": "O=c1c(O)cccc2cc(O)c(O)c(O)c12", "ATP level": "inactive: -0.394"}, {"smiles": "Cc1ccc(S(=O)(=O)NC(=O)NN2CC3CCCC3C2)cc1", "note": "(centres undefined)", "ATP level": "inactive: 2.89"}, {"smiles": "CC(=O)N[C@@H](CC(=O)N[C@@H](CCC(=O)O)C(=O)O)C(=O)O", "ATP level": "inactive: -2.42"}, {"smiles": "Nc1nc(=O)c2[nH]c(=O)cnc2[nH]1", "ATP level": "inactive: 0.448"}, {"smiles": "O=C(O)c1cc2ccccc2[nH]1", "ATP level": "inactive: -1.11"}, {"smiles": "C#CCN(C)Cc1ccccc1", "ATP level": "inactive: 1.91"}, {"smiles": "CC(=O)O[C@H]1CC[C@@]2(C)[C@H](CC[C@@H]3[C@@H]2CC[C@]2(C)[C@@H]4[C@H](C[C@@H]32)O[C@]2(CC[C@@H](C)CO2)[C@H]4C)C1", "ATP level": "active: 3.11"}, {"smiles": "CCCCCC(C)N", "note": "(centres undefined)", "ATP level": "inactive: -0.955"}, {"smiles": "O=C(O)CCC(=O)OC[C@@H](NC(=O)C(Cl)Cl)[C@H](O)c1ccc([N+](=O)[O-])cc1", "ATP level": "inactive: -1.27"}, {"smiles": "COc1ccc2cc(CCC(C)=O)ccc2c1", "ATP level": "inactive: 2.35"}, {"smiles": "COc1ccc(-c2oc3c(CC=C(C)C)c(O[C@@H]4O[C@H](CO)[C@@H](O)[C@H](O)[C@H]4O)cc(O)c3c(=O)c2O[C@@H]2O[C@@H](C)[C@H](O)[C@@H](O)[C@H]2O)cc1", "ATP level": "inactive: -0.726"}, {"smiles": "CCN(CC)CCNC(=O)c1cc(S(C)(=O)=O)ccc1OC", "ATP level": "active: 3.94"}, {"smiles": "Oc1c(I)cc(I)c2cccnc12", "ATP level": "inactive: 1"}, {"smiles": "CN1C2CCCC1CC(NC(=O)c1nn(C)c3ccccc13)C2", "note": "(centres undefined)", "ATP level": "inactive: 1.08"}, {"smiles": "CC(C)CCC[C@@H](C)[C@H]1CC[C@H]2[C@@H]3CC=C4CC(=O)CC[C@]4(C)[C@H]3CC[C@]12C", "ATP level": "inactive: 1.05"}, {"smiles": "CC(C)N1CCN(c2ccc(OCC3COC(Cn4cncn4)(c4ccc(Cl)cc4Cl)O3)cc2)CC1", "note": "(centres undefined)", "ATP level": "inactive: -4.28"}, {"smiles": "CCN(Cc1ccncc1)C(=O)C(CO)c1ccccc1", "note": "(centres undefined)", "ATP level": "inactive: 0.108"}, {"smiles": "OC(CCN1CCCCC1)(c1ccccc1)C1CC2C=CC1C2", "note": "(centres undefined)", "ATP level": "inactive: -0.37"}, {"smiles": "CCN(CC)CC#CCOC(=O)C(O)(c1ccccc1)C1CCCCC1", "note": "(centres undefined)", "ATP level": "inactive: -0.654"}, {"smiles": "Cc1ncc([N+](=O)[O-])n1CCO", "ATP level": "inactive: 1.74"}, {"smiles": "Oc1nc2cc(Cl)c(Cl)cc2nc1O", "ATP level": "inactive: -0.0307"}, {"smiles": "CC(=O)OC1CCC23CC1(C)CCC2C(C)(C)CC3OC(C)=O", "note": "(centres undefined)", "ATP level": "inactive: -0.428"}, {"smiles": "C=CC[C@@H]1/C=C(\\C)C[C@H](C)C[C@H](OC)[C@H]2O[C@@](O)(C(=O)C(=O)N3CCCC[C@H]3C(=O)O[C@H](/C(C)=C/[C@@H]3CC[C@@H](O)[C@H](OC)C3)[C@H](C)[C@@H](O)CC1=O)[C@H](C)C[C@@H]2OC", "ATP level": "inactive: 0.408"}, {"smiles": "COc1ccc2[nH]cc(CCNC(C)=O)c2c1", "ATP level": "inactive: -0.101"}, {"smiles": "COc1c2ccoc2nc2c(OC)c(OCC(O)C(C)(C)O)ccc12", "note": "(centres undefined)", "ATP level": "inactive: 0.664"}, {"smiles": "CC[C@H]1OC(=O)[C@H](C)[C@@H](O[C@H]2C[C@@](C)(OC)[C@@H](O)[C@H](C)O2)[C@H](C)[C@@H](O[C@@H]2O[C@H](C)C[C@H](N(C)C)[C@H]2O)[C@](C)(O)C[C@@H](C)/C(=N\\OCOCCOC)[C@H](C)[C@@H](O)[C@]1(C)O", "ATP level": "active: 4.76"}, {"smiles": "CC/C=C\\C/C=C\\C/C=C\\C/C=C\\C/C=C\\CCCC(=O)OCC", "note": "[OMEGA-3-ACID ESTERS (EPA shown)]", "ATP level": "inactive: 1.58"}, {"smiles": "CC(=O)N[C@@H](CC(C)C)C(=O)O", "ATP level": "inactive: -0.807"}, {"smiles": "C=CC[S+]([O-])C[C@H](N)C(=O)O", "note": "(mixture of isomers)", "ATP level": "inactive: -16.1"}, {"smiles": "Nc1nc(=O)c2nc(CNc3ccc(C(=O)N[C@@H](CCC(=O)O)C(=O)O)cc3)cnc2[nH]1", "ATP level": "active: 3.58"}, {"smiles": "CC(=O)OC1CC2(C)C(C(C)=O)CCC2C2CCC3=CC(=O)CCC3(C)C12", "note": "(centres undefined)", "ATP level": "inactive: -3.45"}, {"smiles": "C#CCCCCCCCCCCCC(O)CC(O)CO", "note": "(centres undefined)", "ATP level": "inactive: -2.12"}, {"smiles": "O=C1CN2Cc3c(ccc(Cl)c3Cl)N=C2N1", "ATP level": "inactive: 1.92"}, {"smiles": "CC(C)NCC(O)COc1ccc(COCCOC(C)C)cc1", "note": "(centres undefined)", "ATP level": "inactive: 1.43"}, {"smiles": "Nc1nc(=S)c2ncn([C@@H]3O[C@H](CO)[C@@H](O)[C@H]3O)c2[nH]1", "ATP level": "inactive: 0.778"}, {"smiles": "O=c1cc(-c2ccc(O)cc2)oc2cc(O)cc(O)c12", "ATP level": "inactive: 1.27"}, {"smiles": "CCOc1cccc(C(=O)c2ccc(O)c(O)c2O)c1", "ATP level": "inactive: 0.875"}, {"smiles": "CC(=O)OCC(COC(C)=O)OC(C)=O", "ATP level": "inactive: -0.145"}, {"smiles": "CN(C)CCN(Cc1cccs1)c1ccccn1", "ATP level": "inactive: -3.67"}, {"smiles": "COc1ccc2c(c1)OCc1c-2oc2cc(OC)ccc12", "ATP level": "inactive: -1.63"}, {"smiles": "COc1ccc([C@H]2COc3c(ccc(O)c3OC)C2)c(OC)c1O", "ATP level": "inactive: 0.737"}, {"smiles": "NC(CO)(CO)CO", "ATP level": "inactive: 1.09"}, {"smiles": "NCCC[C@H](N)C(=O)O", "ATP level": "inactive: -0.574"}, {"smiles": "NC(=O)N1c2ccccc2C=Cc2ccccc21", "ATP level": "inactive: 1.17"}, {"smiles": "CCCNC(C)C(=O)Nc1ccccc1C", "note": "(centres undefined)", "ATP level": "inactive: 0.956"}, {"smiles": "COc1ccc(CN(CCN(C)C)c2ccccn2)cc1", "ATP level": "inactive: -1.53"}, {"smiles": "Nc1ncn([C@@H]2O[C@H](CO)[C@@H](O)[C@H]2O)c(=O)n1", "ATP level": "inactive: 1.43"}, {"smiles": "CC(COc1ccccc1)N(CCCl)Cc1ccccc1", "note": "(centres undefined)", "ATP level": "inactive: -1.9"}, {"smiles": "CC(=O)c1ccc(S(=O)(=O)NC(=O)NC2CCCCC2)cc1", "ATP level": "inactive: -2.98"}, {"smiles": "OC[C@H]1O[C@H]([S-])[C@H](O)[C@@H](O)[C@@H]1O.[Au+]", "ATP level": "inactive: -16.8"}]}]}
